Experimental data as given in PubChem BioAssay AID248 (DTP/NCI, 2004).
The list does not hold the whole screen: it gathers tests that were run many times, whatever their T/C, doses with no T/C, and many T/C values between a quarter and a half above the control. Further doses and runs are listed elsewhere. T/C gives the treated animals as a percentage of the vehicle group. Some entries give survivors of the animals treated and no T/C: the source files T/C as zero there, which appears to mark a toxic dose or a test without result, not a measured value. Some survivor counts are full or nearly so, which does not show that the dose was tolerated: survival well below the control is almost never listed, so the zero probably covers shortened survival too. Survivors were counted at the toxicity check, usually on the fifth day, unless a day is given; later deaths do not show. Schedule codes are those of the source, taken here to give the interval after Q, in days (D) or hours (H), and the number of doses after X. Some schedule codes hold Z or #, which are not explained here. For survival time, this PubChem deposit counts one and a half times the control or more as active, and values a quarter to a half above the control carry no call in these data; other NCI protocols may use other cut-offs. Some entries hold several experiments; their values stand side by side, smallest first. Some T/C values are followed by the survivors on the day toxicity was checked, most often the fifth; without a count, all were alive then.

Test system: L1210 leukemia ip in BDF1 mice, survival T/C
Assay: NCI In Vivo Anticancer Drug Screen. Data for tumor model L1210 Leukemia (intraperitoneal) in B6D2F1 (BDF1) mice
Details: T/C endpoint: mean survival time, higher T/C = longer survival
[1] = dose: 200.0 mg/kg/injection, schedule: Q01DX009 (ip), vehicle: Klucel (hydroxypropylcellulose) (HPC)
[2] = dose: 400.0 mg/kg/injection, schedule: Q04DX003 (ip), vehicle: Klucel (hydroxypropylcellulose) (HPC)
[3] = dose: 400.0 mg/kg/injection, schedule: Q01DX001 (ip), vehicle: carboxymethylcellulose (CMC)
[4] = dose: 400.0 mg/kg/injection, schedule: Q01DX009 (ip), vehicle: Klucel (hydroxypropylcellulose) (HPC)
[5] = dose: 100.0 mg/kg/injection, schedule: Q01DX009 (ip), vehicle: saline with Tween-80
[6] = dose: 400.0 mg/kg/injection, schedule: Q01DX009 (ip), vehicle: saline with Tween-80
[7] = dose: 100.0 mg/kg/injection, schedule: Q01DX009 (ip), vehicle: Klucel (hydroxypropylcellulose) (HPC)

Compound: CCN(CC)CCCNc1c2ccc(Cl)cc2nc2ccc(OC)cc12
- survivor count (dose: 50.0 mg/kg/injection, schedule: Q01DX001 (ip), vehicle: saline): 2 of 4
- survivor count (dose: 100.0 mg/kg/injection, schedule: Q01DX001 (ip), vehicle: saline): 0 of 4
- survivor count (dose: 200.0 mg/kg/injection, schedule: Q01DX001 (ip), vehicle: saline): 0 of 4
- survivor count (dose: 400.0 mg/kg/injection, schedule: Q01DX001 (ip), vehicle: saline): 0 of 4

Compound: CC(C)C1NC(=O)C(N)C(C)OC(=O)C(C(C)C)N(C)C(=O)CN(C)C(=O)C2CCCN2C1=O (centres undefined) (tested in a mixture with another compound)
- T/C (dose: 1.6 mg/kg/injection, schedule: Q01DX001 (ip), vehicle: saline + alcohol): 133 % of control
- T/C (dose: 50.0 micrograms/kg/injection, schedule: Q01DX009 (ip), vehicle: saline + alcohol): 127 % of control
- T/C (dose: 100.0 micrograms/kg/injection, schedule: Q01DX009 (ip), vehicle: saline + alcohol): 127 % of control [7 of 8 alive]
- T/C (dose: 200.0 micrograms/kg/injection, schedule: Q01DX009 (ip), vehicle: saline + alcohol): 145 % of control
- T/C (dose: 400.0 micrograms/kg/injection, schedule: Q01DX009 (ip), vehicle: saline + alcohol): 129 % of control
- T/C (dose: 600.0 micrograms/kg/injection, schedule: Q04DX003 (ip), vehicle: saline + alcohol): 126 % of control

Compound: CNC(=N)c1ccc(NC(=N)c2ccc(NC(=O)Nc3cccc(NC(=O)Nc4ccc(C(=N)Nc5ccc(C(=N)NC)cc5)cc4)c3)cc2)cc1
- T/C (dose: 1.25 mg/kg/injection, schedule: Q01DX015 (ip), vehicle: water): 125 % of control
- T/C (dose: 2.5 mg/kg/injection, schedule: Q01DX015 (ip), vehicle: water): 131 % of control
- T/C (dose: 5.0 mg/kg/injection, schedule: Q01DX Z (ip), vehicle: water): 130 % of control
- T/C (dose: 10.0 mg/kg/injection, schedule: Q01DX001 (ip), vehicle: water): 133 % of control
- T/C (dose: 20.0 mg/kg/injection, schedule: Q01DX015 (ip), vehicle: water): 147 % of control
- T/C (dose: 25.0 mg/kg/injection, schedule: Q01DX001 (ip), vehicle: water): 142, 152, 160, 176 % of control
- T/C (dose: 50.0 mg/kg/injection, schedule: Q01DX001 (ip), vehicle: water, evaluated on day 5): 245 % of control
- T/C (dose: 50.0 mg/kg/injection, schedule: Q01DX001 (ip), vehicle: water, run until all animals had died): 196, 201, 206, 318 % of control
- survivor count (dose: 57.0 mg/kg/injection, schedule: Q01DX Z (ip), vehicle: water): 1 of 6
- T/C (dose: 75.0 mg/kg/injection, schedule: Q01DX001 (ip), vehicle: water, evaluated on day 5): 297 % of control
- survivor count (dose: 75.0 mg/kg/injection, schedule: Q01DX001 (ip), vehicle: water): 5 of 10
- T/C (dose: 75.0 mg/kg/injection, schedule: Q01DX001 (ip), vehicle: water, run until all animals had died): 255 [8 of 10 alive] and 412 % of control
- survivor count (dose: 100.0 mg/kg/injection, schedule: Q01DX001 (ip), vehicle: water): 3 of 6
- survivor count (dose: 114.0 mg/kg/injection, schedule: Q01DX Z (ip), vehicle: water): 0 of 6

Compound: Cc1ccc(S(=O)(=O)N2CCN(S(=O)(=O)c3ccc(C)c([N+](=O)[O-])c3)CC2)cc1[N+](=O)[O-]
- survivor count (dose: 100.0 mg/kg/injection, schedule: Q04DX003 (ip), vehicle: clinical formulation): 10 of 10

Compound: COc1cc(C=C(C#N)C#N)cc(OC)c1OC
- survivor count (dose: 200.0 mg/kg/injection, schedule: Q04DX002 (ip), vehicle: gum acacia): 1 of 3
- survivor count (dose: 400.0 mg/kg/injection, schedule: Q04DX002 (ip), vehicle: gum acacia): 1 of 3

Compound: COC(=O)c1nc(Cl)nc(S(C)(=O)=O)c1Cl
- survivor count [1]: 0 of 3

Compound: CCOC(=O)NCC(CCN1CCCCC1)(c1cccc2ccccc12)C(C)C (centres undefined)
- survivor count [2]: 1 of 6

Compound: CC(=O)Nc1ccc(Br)cc1
- survivor count [3]: 4 of 4
- survivor count [4]: 4 of 6

Compound: O=S(=O)(C1=C(c2ccccc2)CCCC1)c1ccccc1
- survivor count (dose: 200.0 mg/kg/injection, schedule: Q01DX009 (ip), vehicle: acetone): 6 of 6
- survivor count (dose: 400.0 mg/kg/injection, schedule: Q01DX009 (ip), vehicle: acetone): 6 of 6

Compound: Cc1cc(C(O)c2ccccn2)c2ccccc2n1 (centres undefined)
- survivor count [1]: 3 of 6
- survivor count (dose: 400.0 mg/kg/injection, schedule: Q01DX001 (ip), vehicle: Klucel (hydroxypropylcellulose) (HPC)): 1 of 6

Compound: O=C(OC12CCCCC1CCCC2)c1ccc([N+](=O)[O-])cc1 (centres undefined)
- survivor count [5]: 6 of 6
- survivor count [6]: 6 of 6

Compound: CC12CC3CC(C)(C1)CC(SCCN)(C3)C2
- survivor count (dose: 400.0 mg/kg/injection, schedule: Q04DX002 (ip), vehicle: saline): 2 of 3

Compound: CCOc1c(Br)cc(Br)cc1/C=N/NS(=O)(=O)c1ccc(C)cc1
- survivor count [1]: 5 of 6

Compound: O=C(Nc1ccccc1F)Nc1ccccc1Cl
- survivor count [7]: 6 of 6
- survivor count [2]: 6 of 6

Compound: COc1ccc(N=O)c(O)c1
- survivor count [1]: 0 of 6

Compound: O=[N+]([O-])c1cc(Cl)cc2c1-c1c(Cl)cc(Cl)cc1C2O (centres undefined)
- survivor count [4]: 2 of 6

Compound: COc1ccc(C(SCC(N)C(=O)O)(c2ccccc2)c2ccc(OC)cc2)cc1 (centres undefined)
- T/C (dose: 12.5 mg/kg/injection, schedule: Q01DX009 (ip), vehicle: saline): 135 and 136 % of control
- T/C (dose: 25.0 mg/kg/injection, schedule: Q01DX009 (ip), vehicle: other): 127 % of control
- T/C (dose: 25.0 mg/kg/injection, schedule: Q01DX009 (ip), vehicle: saline): 149 % of control
- survivor count (dose: 50.0 mg/kg/injection, schedule: Q01DX009 (ip), vehicle: other): 6 of 6
- survivor count (dose: 100.0 mg/kg/injection, schedule: Q01DX009 (ip), vehicle: other): 0 of 6
- survivor count (dose: 100.0 mg/kg/injection, schedule: Q01DX009 (ip), vehicle: saline): 0 of 6

Compound: Cc1cscc(C)c1=S
- survivor count [5]: 3 of 6
- survivor count (dose: 200.0 mg/kg/injection, schedule: Q01DX009 (ip), vehicle: saline with Tween-80): 1 of 6
- survivor count [6]: 2 of 6

Compound: Cc1cccc(OS(=O)(=O)c2ccccc2[N+](=O)[O-])c1
- survivor count (dose: 200.0 mg/kg/injection, schedule: Q01DX009 (ip), vehicle: saline sonified): 6 of 6

Compound: OC(c1ccccc1)C1C(c2ccccc2)N1C1CCCCC1 (centres undefined)
- survivor count [7]: 5 of 6
- survivor count [2]: 5 of 6

Compound: SCCCCN1CCCCC1
- survivor count (dose: 50.0 mg/kg/injection, schedule: Q01DX001 (ip), vehicle: carboxymethylcellulose (CMC)): 0 of 6
- survivor count (dose: 100.0 mg/kg/injection, schedule: Q01DX001 (ip), vehicle: carboxymethylcellulose (CMC)): 0 of 6
- survivor count (dose: 200.0 mg/kg/injection, schedule: Q01DX001 (ip), vehicle: carboxymethylcellulose (CMC)): 0 of 6
- survivor count [3]: 0 of 6

Compound: Fc1cccc(CSC(=S)Nc2ccc(Cl)c(Cl)c2)c1
- survivor count (dose: 200.0 mg/kg/injection, schedule: Q04DX003 (ip), vehicle: saline with Tween-80): 2 of 3

Compound: CCN(CC)CCOC(=O)C(S)(c1ccccc1)c1ccccc1
- survivor count (dose: 150.0 mg/kg/injection, schedule: Q01DX001 (ip), vehicle: other): 2 of 6
- survivor count (dose: 300.0 mg/kg/injection, schedule: Q01DX001 (ip), vehicle: other): 0 of 6

Compound: N=C(N)c1ccc(-c2cc3cc(C(=N)N)ccc3s2)cc1
- survivor count (dose: 200.0 mg/kg/injection, schedule: Q04DX003 (ip), vehicle: saline): 2 of 4
- survivor count (dose: 400.0 mg/kg/injection, schedule: Q04DX003 (ip), vehicle: saline): 0 of 4
